Measurements from EP0355409A2, “Use of prolylendopeptidase inhibitors in the treatment of AIDS” (KABUSHIKI KAISHA YAKULT HONSHA, priority 1988, dated 1990).
The name of at least one read-out is uncertain. Peptide text beside a SMILES is read from it. * marks the point of attachment. Cbz = O=C(OCc1ccccc1)*

Tested on: LAV-1 infected CEM cells (CEM/LAV-1) and MOLT4 Clone 8
Experiment: Inhibition of syncytia formation in mixed culture of HIV-infected and non-infected T cells
Type: cell-based
Design: key: -: Absolutely no inhibition of syncytium formation.; ±: Slight inhibition of syncytium formation.; +: Partial inhibition of syncytium formation.; ++: Substantial inhibition of syncytium formation.; +++: Complete inhibition of syncytium formation
Conditions: CEM/LAV-1 + MOLT4 Clone 8, 37°C, 18 hours
From the text: When HIV-infected T cells and non-infected T cells are mixed in a test tube, the infected T cells and non-infected T cells undergo fusion and form giant cells. This "syncytium forming phenomenon" has already been known to be observed upon their mixing. This phenomenon is characteristic to intercellular infection from HIV and is regarded as an evidence for HIV infection of T cells.
LAV-1 infected CEM cells (CEM/LAV-1, 2 x 10⁴) and MOLT4 Clone 8 (1 x 10⁵) were used as HIV-infected cells and non-infected cells, respectively. Those two types of cells were cultured in 200 µl/well of RPMI1640 medium added with 10% FCS in a 96-well microplate. The PEP inhibitors of this invention and comparative product, which are shown in Table 1, were separately added. The cells were cultured at 37°C for 18 hours in a capneic incubator. Formation of syncytia was observed. The PEP inhibitory action was measured according to the following method.

| SMILES | Inhibition of Syncytia Formation (30 μM) | Inhibition of Syncytia Formation (100 μM) | Inhibition of Syncytia Formation (300 μM) | Inhibition of Syncytia Formation (1 mM) | Inhibition of Syncytia Formation (3 mM) |
| --- | --- | --- | --- | --- | --- |
| O=CC1CCCN1C(=O)C1CCCN1C(=O)OCc1ccccc1 (stereo not drawn) (Cbz-Pro-Pro-aldehyde; configuration not given here) | ± | + | ++ | +++ | +++ |
| O=C(C1CCCN1C(=O)OCc1ccccc1)N1CCCC1 (stereo not shown) | ± | ± | ± | + | ++ |
| O=C(C1CSCN1C(=O)OCc1ccccc1)N1CCOCC1 (stereo not shown) | ± | ± | ± | ± | + |
| O=C(C1CSCN1C(=O)OCc1ccccc1)N1CCCC1 (stereo not shown) |  | ± | ± | + | ++ |
